Data taken from the supplement of paper PMC10849652.
The other results are listed elsewhere or left out.

Protein sequences, listed by entry. Tags and fused reporters are not part of them. Lines headed by an entry give the natural chain unless they say otherwise; changes in a name come on top.
UniProt P50148, whole entry, looked up: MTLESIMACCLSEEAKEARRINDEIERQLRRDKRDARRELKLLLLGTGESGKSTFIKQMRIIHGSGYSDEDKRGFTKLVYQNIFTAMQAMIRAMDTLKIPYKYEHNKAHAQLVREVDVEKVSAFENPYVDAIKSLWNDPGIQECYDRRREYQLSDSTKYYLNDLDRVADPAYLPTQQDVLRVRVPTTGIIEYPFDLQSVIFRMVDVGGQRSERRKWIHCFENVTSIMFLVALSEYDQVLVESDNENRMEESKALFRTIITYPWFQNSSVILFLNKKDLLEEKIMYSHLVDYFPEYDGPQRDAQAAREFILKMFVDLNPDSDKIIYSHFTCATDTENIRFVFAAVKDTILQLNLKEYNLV
UniProt P62993, whole entry, looked up: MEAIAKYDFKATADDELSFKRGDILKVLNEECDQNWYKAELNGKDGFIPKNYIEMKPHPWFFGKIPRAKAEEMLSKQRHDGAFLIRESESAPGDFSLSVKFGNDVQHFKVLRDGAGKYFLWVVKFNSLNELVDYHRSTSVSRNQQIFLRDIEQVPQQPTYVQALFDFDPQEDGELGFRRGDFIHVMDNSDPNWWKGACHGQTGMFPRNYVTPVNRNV
UniProt Q8TBA6: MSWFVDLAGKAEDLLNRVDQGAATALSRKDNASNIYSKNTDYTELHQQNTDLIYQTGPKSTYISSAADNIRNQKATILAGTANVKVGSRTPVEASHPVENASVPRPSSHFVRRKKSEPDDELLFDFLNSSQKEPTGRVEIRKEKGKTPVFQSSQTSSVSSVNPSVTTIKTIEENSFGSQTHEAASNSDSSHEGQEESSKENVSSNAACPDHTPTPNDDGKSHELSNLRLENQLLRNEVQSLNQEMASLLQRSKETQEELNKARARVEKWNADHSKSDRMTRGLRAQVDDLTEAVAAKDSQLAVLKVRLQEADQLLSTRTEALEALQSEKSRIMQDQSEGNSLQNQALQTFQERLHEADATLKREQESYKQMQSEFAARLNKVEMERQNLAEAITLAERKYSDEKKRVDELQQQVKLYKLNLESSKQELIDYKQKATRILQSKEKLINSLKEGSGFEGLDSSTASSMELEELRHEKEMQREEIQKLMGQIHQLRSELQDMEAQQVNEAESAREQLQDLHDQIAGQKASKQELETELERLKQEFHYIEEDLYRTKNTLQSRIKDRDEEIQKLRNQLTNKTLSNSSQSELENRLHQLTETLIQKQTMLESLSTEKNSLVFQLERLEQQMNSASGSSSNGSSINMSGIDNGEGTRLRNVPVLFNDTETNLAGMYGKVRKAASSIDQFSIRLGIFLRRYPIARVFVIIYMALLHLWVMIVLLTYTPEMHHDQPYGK
UniProt O94925: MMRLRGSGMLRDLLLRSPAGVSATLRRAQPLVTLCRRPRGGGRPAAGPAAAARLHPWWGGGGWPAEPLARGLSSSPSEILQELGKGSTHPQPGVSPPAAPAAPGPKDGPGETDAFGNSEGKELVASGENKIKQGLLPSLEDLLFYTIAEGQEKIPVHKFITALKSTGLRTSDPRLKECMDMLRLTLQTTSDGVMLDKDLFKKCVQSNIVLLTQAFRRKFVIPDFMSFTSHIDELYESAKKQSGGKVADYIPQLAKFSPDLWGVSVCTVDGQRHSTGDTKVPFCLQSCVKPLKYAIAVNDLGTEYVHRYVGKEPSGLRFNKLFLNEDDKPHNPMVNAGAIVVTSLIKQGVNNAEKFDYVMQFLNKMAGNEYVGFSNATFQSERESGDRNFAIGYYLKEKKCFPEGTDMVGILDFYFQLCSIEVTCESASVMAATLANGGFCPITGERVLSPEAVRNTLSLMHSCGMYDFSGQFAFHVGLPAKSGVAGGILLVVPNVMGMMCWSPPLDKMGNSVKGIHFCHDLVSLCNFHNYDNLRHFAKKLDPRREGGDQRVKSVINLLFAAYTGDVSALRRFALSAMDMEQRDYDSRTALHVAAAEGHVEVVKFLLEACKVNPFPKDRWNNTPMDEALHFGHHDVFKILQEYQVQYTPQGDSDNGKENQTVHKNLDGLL
UniProt Q49A26: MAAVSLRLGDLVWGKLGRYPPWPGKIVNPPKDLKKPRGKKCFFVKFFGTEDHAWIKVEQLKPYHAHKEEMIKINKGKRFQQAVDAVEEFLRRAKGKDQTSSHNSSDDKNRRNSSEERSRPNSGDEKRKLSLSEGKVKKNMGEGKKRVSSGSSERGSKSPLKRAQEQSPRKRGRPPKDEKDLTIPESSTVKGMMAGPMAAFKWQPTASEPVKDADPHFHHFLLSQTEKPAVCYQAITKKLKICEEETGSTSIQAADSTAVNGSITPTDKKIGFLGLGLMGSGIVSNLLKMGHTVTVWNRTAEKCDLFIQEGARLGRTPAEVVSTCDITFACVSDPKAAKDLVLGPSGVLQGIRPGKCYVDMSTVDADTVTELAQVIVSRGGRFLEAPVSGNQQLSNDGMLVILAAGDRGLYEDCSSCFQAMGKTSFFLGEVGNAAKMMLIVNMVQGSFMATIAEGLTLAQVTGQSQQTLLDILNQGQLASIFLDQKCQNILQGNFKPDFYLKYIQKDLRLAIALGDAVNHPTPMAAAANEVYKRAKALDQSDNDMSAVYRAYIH
UniProt P08754, whole entry, looked up: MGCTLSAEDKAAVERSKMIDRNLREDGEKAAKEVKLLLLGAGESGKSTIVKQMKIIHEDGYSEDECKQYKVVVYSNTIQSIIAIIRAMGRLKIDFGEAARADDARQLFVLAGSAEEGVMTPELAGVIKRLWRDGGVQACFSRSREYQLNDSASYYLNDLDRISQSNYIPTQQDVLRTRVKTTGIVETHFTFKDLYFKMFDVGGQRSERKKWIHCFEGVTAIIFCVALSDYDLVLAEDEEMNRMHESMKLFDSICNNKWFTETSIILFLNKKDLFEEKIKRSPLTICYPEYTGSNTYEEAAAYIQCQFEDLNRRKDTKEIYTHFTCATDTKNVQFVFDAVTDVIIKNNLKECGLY
UniProt Q4V328: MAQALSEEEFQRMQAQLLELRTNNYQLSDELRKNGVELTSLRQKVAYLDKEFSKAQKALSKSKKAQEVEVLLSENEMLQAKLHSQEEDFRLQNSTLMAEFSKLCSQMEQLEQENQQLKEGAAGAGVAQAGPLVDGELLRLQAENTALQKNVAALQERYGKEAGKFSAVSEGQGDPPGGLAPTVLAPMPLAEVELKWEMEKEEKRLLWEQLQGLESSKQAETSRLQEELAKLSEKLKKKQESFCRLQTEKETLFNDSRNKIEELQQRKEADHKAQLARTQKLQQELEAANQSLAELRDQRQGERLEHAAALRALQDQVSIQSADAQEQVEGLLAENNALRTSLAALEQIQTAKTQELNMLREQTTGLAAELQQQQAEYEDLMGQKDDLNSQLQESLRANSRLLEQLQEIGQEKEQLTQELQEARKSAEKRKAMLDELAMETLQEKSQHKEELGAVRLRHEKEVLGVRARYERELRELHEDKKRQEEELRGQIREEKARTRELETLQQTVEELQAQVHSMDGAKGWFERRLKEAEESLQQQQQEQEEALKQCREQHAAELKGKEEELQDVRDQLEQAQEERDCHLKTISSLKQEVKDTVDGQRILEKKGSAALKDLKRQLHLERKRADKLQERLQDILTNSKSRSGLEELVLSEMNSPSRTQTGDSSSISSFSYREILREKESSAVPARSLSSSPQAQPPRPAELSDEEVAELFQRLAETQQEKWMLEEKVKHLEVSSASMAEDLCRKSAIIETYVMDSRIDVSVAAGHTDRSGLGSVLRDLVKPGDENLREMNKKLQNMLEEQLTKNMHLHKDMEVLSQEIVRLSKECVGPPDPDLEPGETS
UniProt P15586: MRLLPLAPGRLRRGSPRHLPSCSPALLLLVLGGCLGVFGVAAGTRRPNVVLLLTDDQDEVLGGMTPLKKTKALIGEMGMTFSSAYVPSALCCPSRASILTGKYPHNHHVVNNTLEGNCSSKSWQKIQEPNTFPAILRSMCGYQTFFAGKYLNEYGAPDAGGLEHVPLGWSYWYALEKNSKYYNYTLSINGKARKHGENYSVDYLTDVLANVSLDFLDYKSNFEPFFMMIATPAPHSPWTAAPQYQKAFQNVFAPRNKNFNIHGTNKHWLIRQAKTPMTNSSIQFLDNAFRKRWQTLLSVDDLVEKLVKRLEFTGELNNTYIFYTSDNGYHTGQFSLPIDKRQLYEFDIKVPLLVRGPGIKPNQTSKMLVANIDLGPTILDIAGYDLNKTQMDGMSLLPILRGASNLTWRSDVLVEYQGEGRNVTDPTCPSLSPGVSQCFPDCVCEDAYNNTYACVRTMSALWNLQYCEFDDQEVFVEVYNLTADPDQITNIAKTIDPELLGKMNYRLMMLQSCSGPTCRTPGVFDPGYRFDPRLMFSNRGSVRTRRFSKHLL
UniProt P63218: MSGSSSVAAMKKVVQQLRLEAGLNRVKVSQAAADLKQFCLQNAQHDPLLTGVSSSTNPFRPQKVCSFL
UniProt Q9NQX3: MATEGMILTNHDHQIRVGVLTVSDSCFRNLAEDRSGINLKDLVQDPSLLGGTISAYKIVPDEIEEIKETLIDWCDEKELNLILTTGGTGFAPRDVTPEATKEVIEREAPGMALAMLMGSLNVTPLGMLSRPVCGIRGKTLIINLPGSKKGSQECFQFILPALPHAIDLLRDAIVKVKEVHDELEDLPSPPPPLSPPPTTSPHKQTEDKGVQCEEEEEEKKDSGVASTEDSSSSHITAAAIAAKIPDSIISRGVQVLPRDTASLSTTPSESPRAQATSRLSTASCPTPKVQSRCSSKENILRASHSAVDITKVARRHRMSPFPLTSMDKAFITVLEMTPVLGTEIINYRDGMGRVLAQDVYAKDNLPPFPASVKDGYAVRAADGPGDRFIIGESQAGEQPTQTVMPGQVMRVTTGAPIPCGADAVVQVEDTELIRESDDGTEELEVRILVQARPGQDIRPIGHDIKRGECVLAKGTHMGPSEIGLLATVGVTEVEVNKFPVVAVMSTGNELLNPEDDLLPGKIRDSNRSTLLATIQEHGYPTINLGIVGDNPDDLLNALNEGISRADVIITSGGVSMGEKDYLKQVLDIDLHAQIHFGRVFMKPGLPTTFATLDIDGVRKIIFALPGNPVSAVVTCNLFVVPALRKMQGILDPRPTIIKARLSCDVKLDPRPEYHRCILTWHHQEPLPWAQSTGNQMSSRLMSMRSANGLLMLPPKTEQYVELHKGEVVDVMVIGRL
UniProt O60234, whole entry, looked up: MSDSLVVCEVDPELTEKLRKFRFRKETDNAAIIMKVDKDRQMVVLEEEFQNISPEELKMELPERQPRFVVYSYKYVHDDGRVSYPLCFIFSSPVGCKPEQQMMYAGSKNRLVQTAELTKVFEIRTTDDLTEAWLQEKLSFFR
UniProt Q5JWF2, whole entry, looked up: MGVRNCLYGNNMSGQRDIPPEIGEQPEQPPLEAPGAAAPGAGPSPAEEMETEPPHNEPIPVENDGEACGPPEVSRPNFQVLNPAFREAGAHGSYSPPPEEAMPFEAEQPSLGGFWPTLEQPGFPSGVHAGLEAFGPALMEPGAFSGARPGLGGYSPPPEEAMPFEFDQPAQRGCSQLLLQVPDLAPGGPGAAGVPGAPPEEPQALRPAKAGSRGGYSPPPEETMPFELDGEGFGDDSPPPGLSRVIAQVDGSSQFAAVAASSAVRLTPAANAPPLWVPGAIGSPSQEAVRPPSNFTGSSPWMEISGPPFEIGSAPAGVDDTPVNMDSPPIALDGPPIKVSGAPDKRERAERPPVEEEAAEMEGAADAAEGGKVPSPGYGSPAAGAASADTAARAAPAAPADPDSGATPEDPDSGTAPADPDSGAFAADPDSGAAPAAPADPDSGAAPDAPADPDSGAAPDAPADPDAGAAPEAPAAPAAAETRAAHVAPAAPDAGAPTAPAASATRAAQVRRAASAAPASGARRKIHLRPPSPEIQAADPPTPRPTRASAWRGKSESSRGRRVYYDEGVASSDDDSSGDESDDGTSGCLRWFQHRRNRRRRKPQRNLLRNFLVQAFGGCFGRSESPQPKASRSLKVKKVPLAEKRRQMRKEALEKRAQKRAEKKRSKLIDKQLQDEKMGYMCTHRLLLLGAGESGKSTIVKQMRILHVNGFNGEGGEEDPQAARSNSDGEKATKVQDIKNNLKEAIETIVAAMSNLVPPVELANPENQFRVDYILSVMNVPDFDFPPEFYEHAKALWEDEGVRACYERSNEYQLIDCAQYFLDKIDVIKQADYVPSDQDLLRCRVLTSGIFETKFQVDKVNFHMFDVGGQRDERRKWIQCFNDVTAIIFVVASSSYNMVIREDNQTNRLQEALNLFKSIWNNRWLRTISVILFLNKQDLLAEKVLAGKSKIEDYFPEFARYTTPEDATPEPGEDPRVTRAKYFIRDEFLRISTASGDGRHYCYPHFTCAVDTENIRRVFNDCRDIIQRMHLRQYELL
UniProt Q9BYB4: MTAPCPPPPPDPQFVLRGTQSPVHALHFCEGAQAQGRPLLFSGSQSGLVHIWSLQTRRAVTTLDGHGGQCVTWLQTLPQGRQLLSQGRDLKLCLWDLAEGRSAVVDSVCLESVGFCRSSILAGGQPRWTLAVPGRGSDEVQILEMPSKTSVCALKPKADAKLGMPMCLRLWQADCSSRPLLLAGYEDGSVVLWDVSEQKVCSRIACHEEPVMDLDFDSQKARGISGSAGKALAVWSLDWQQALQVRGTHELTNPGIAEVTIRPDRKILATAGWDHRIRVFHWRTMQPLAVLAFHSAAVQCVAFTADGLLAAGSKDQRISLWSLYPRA

Tests used:
Experiment in all cases: log2 fold change, soluble protein after heating vs DMSO (PISA); higher = thermal stabilisation; K562 cells, 10 uM, 30 min; active = over 0.2 and 3.5 SD of the protein, either way, in both replicates (recomputed)
bafetinib = compound: Cc1ccc(NC(=O)c2ccc(CN3CC[C@H](N(C)C)C3)c(C(F)(F)F)c2)cc1Nc1nccc(-c2cncnc2)n1 [bafetinib]
Outline: (§1)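 Soluble protein was quantified by TMTpro 16plex LC-MS/MS after channel sums were equalised. It was obtained as the supernatant after 21,000xg for 90 min from pooled aliquots of K562 cells (2×10^6 cells/mL, 10 μM compound, 30 min) heated for 3 min across 48°C-58°C and extracted in PBS with 0.5% NP-40 at 4°C. Thermal stability values are relative to control samples and come from duplicates. They are given as log2 fold changes.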

[1] = compound: Cc1cccc(CC(=O)N2CCc3c2ccc(-c2cn(C)c4ncnc(N)c24)c3F)n1
Outline: as §1

nilotinib = compound: Cc1cn(-c2cc(NC(=O)c3ccc(C)c(Nc4nccc(-c5cccnc5)n4)c3)cc(C(F)(F)F)c2)cn1 [nilotinib]
Outline: as §1

[2] = compound: Cc1nc(Nc2n[nH]c3c2CN(C(=O)N[C@H](CN(C)C)c2ccccc2)C3(C)C)c2sccc2n1
Outline: as §1

dasatinib = compound: Cc1nc(Nc2ncc(C(=O)Nc3c(C)cccc3Cl)s2)cc(N2CCN(CCO)CC2)n1 [dasatinib]
Outline: as §1

[3] = compound: Cc1ncc(-c2ccnc(Nc3ccc(S(C)(=O)=O)cc3)n2)n1C(C)C
Outline: as §1

[4] = compound: Cn1cc(-c2ccc3c(c2)CCN3C(=O)Cc2cccc(C(F)(F)F)c2)c2c(N)ncnc21
Outline: as §1

[5] = compound: Cn1cc(-c2ccc3nnc(C(F)(F)c4ccc5ncccc5c4)n3n2)cn1
Outline: as §1

tipifarnib = compound: Cn1cncc1[C@@](N)(c1ccc(Cl)cc1)c1ccc2c(c1)c(-c1cccc(Cl)c1)cc(=O)n2C [tipifarnib]
Outline: as §1

mubritinib = compound: FC(F)(F)c1ccc(/C=C/c2nc(COc3ccc(CCCCn4ccnn4)cc3)co2)cc1 [mubritinib]
Outline: as §1

[6] = compound: NC(=O)Nc1cc(-c2cccc(F)c2)sc1C(=O)N[C@H]1CCCNC1
Outline: as §1

[7] = compound: NC(=O)c1cnc(N[C@@H]2CCCC[C@@H]2N)nc1Nc1cccc(-n2nccn2)c1
Outline: as §1

[8] = compound: NC1(c2ccc(-c3nc4ccn5c(=O)[nH]nc5c4cc3-c3ccccc3)cc2)CCC1
Outline: as §1

[9] = compound: NCC(=O)Nc1ccc(-n2nc(C(F)(F)F)cc2-c2ccc3c(ccc4ccccc43)c2)cc1
Outline: as §1

entinostat = compound: Nc1ccccc1NC(=O)c1ccc(CNC(=O)OCc2cccnc2)cc1 [entinostat]
Outline: as §1

vorinostat = compound: O=C(CCCCCCC(=O)Nc1ccccc1)NO [vorinostat]
Outline: as §1

citarinostat = compound: O=C(CCCCCCNC(=O)c1cnc(N(c2ccccc2)c2ccccc2Cl)nc1)NO [citarinostat]
Outline: as §1

silmitasertib = compound: O=C(O)c1ccc2c(c1)nc(Nc1cccc(Cl)c1)c1ccncc12 [silmitasertib]
Outline: as §1

[10] = compound: O=C1NC(=O)C(c2cnc3ccccn23)=C1c1cn2c3c(cc(F)cc13)CN(C(=O)N1CCCCC1)CC2
Outline: as §1

[11] = compound: c1cc(OCCN2CCCCC2)cc(-c2n[nH]c3ccc(-c4nnc[nH]4)cc23)c1
Outline: as §1

Measured: log2 fold change

GNAQ (UniProt P50148)
inactive: bafetinib 0.006 | [1] 0.025 | nilotinib 0.068 | [2] 0.014 | dasatinib 0.008 | [3] 0 | [4] 0.023 | [5] 0.008 | tipifarnib 0.065 | mubritinib -0.006 | [6] -0.12 | [7] 0.055 | [8] 0.03 | [9] -0.003 | entinostat -0.016 | vorinostat -0.049 | citarinostat -0.044 | silmitasertib -0.002 | [10] -0.085 | [11] -0.088

GRB2 (UniProt P62993)
inactive: bafetinib 0.139 | [1] 0.032 | nilotinib 0.174 | [2] -0.031 | dasatinib 0.114 | [3] -0.014 | [4] 0.049 | [5] 0.013 | tipifarnib 0.035 | mubritinib 0.077 | [6] 0.026 | [7] -0.008 | [8] -0.041 | [9] -0.008 | entinostat -0.022 | vorinostat 0.007 | citarinostat 0.033 | silmitasertib -0.002 | [10] -0.017 | [11] -0.057

GNA11 (UniProt P29992)
inactive: bafetinib 0.05 | [1] -0.001 | nilotinib 0.045 | [2] -0.073 | dasatinib -0.013 | [3] 0.028 | [4] 0.039 | [5] -0.001 | tipifarnib 0.009 | mubritinib 0.001 | [6] 0.027 | [7] 0.042 | [8] 0.029 | [9] -0.041 | entinostat -0.08 | vorinostat -0.025 | citarinostat -0.068 | silmitasertib 0.018 | [10] -0.012 | [11] 0

GOLGA5 (UniProt Q8TBA6)
inactive: bafetinib -0.074 | [1] 0.004 | nilotinib 0.069 | [2] -0.045 | dasatinib 0.038 | [3] -0.005 | [4] -0.004 | [5] -0.01 | tipifarnib 0.006 | mubritinib 0.015 | [6] 0 | [7] 0 | [8] 0.022 | [9] 0.002 | entinostat -0.015 | vorinostat 0.001 | citarinostat 0.052 | silmitasertib 0.005 | [10] -0.035 | [11] 0.002

GLS (UniProt O94925)
inactive: bafetinib -0.021 | [1] 0.025 | nilotinib -0.095 | [2] -0.069 | dasatinib -0.154 | [3] 0.009 | [4] -0.081 | [5] 0.003 | tipifarnib -0.071 | mubritinib -0.285 | [6] -0.019 | [7] 0.152 | [8] -0.157 | [9] -0.093 | entinostat 0.039 | vorinostat 0.022 | citarinostat 0.068 | silmitasertib 0.008 | [10] -0.193 | [11] -0.032

GNPDA1 (UniProt P46926)
inactive: bafetinib -0.044 | [1] -0.018 | nilotinib 0.005 | [2] 0.012 | dasatinib 0.049 | [3] -0.023 | [4] -0.013 | [5] 0.009 | tipifarnib 0.022 | mubritinib 0.047 | [6] 0.019 | [7] -0.005 | [8] 0.005 | [9] 0.018 | entinostat -0.014 | vorinostat 0.017 | citarinostat 0.019 | silmitasertib 0.03 | [10] -0.026 | [11] -0.023

2 neighbouring entries out of the list so far:
GNA11 (UniProt P29992)
inactive: bafetinib 0.05 | [1] -0.001 | nilotinib 0.045 | [2] -0.073 | dasatinib -0.013 | [3] 0.028 | [4] 0.039 | [5] -0.001 | tipifarnib 0.009 | mubritinib 0.001 | [6] 0.027 | [7] 0.042 | [8] 0.029 | [9] -0.041 | entinostat -0.08 | vorinostat -0.025 | citarinostat -0.068 | silmitasertib 0.018 | [10] -0.012 | [11] 0

GOLGA5 (UniProt Q8TBA6)
inactive: bafetinib -0.074 | [1] 0.004 | nilotinib 0.069 | [2] -0.045 | dasatinib 0.038 | [3] -0.005 | [4] -0.004 | [5] -0.01 | tipifarnib 0.006 | mubritinib 0.015 | [6] 0 | [7] 0 | [8] 0.022 | [9] 0.002 | entinostat -0.015 | vorinostat 0.001 | citarinostat 0.052 | silmitasertib 0.005 | [10] -0.035 | [11] 0.002

Remaining list, next part:

GLYR1 (UniProt Q49A26)
inactive: bafetinib 0.109 | [1] -0.015 | nilotinib 0.082 | [2] 0.068 | dasatinib 0.067 | [3] -0.004 | [4] -0.004 | [5] -0.01 | tipifarnib 0.054 | mubritinib 0.024 | [6] -0.023 | [7] 0.034 | [8] -0.032 | [9] 0.112 | entinostat -0.049 | vorinostat 0.027 | citarinostat 0.011 | silmitasertib -0.015 | [10] -0.009 | [11] -0.135

GNAI3 (UniProt P08754)
inactive: bafetinib 0.066 | [1] 0.033 | nilotinib 0.185 | [2] 0.008 | dasatinib 0.086 | [3] -0.004 | [4] -0.017 | [5] 0.018 | tipifarnib -0.008 | mubritinib -0.032 | [6] -0.016 | [7] 0.022 | [8] -0.046 | [9] 0.003 | entinostat -0.04 | vorinostat -0.016 | citarinostat -0.018 | silmitasertib 0.052 | [10] -0.027 | [11] -0.076

GRIPAP1 (UniProt Q4V328)
inactive: bafetinib -0.04 | [1] -0.035 | nilotinib 0.136 | [2] -0.059 | dasatinib 0.046 | [3] 0.089 | [4] -0.128 | [5] -0.026 | tipifarnib 0.002 | mubritinib 0.037 | [6] 0.086 | [7] -0.049 | [8] 0.004 | [9] 0.004 | entinostat 0.068 | vorinostat 0.068 | citarinostat 0.083 | silmitasertib 0.158 | [10] 0.11 | [11] -0.009

GNS (UniProt P15586)
inactive: bafetinib -0.156 | [1] -0.002 | nilotinib 0.003 | [2] 0.037 | dasatinib 0.006 | [3] -0.033 | [4] 0.008 | [5] -0.028 | tipifarnib 0.02 | mubritinib -0.004 | [6] 0.002 | [7] 0 | [8] -0.109 | [9] 0.01 | entinostat -0.006 | vorinostat -0.036 | citarinostat 0.019 | silmitasertib -0.026 | [10] -0.049 | [11] 0.003

GNG5 (UniProt P63218)
inactive: bafetinib 0.013 | [1] -0.048 | nilotinib 0.12 | [2] 0.023 | dasatinib 0.06 | [3] -0.051 | [4] 0.027 | [5] 0.169 | tipifarnib 0.027 | mubritinib 0.039 | [6] -0.029 | [7] 0.071 | [8] 0.056 | [9] 0.086 | entinostat 0.082 | vorinostat -0.127 | citarinostat -0.021 | silmitasertib 0.017 | [10] -0.156 | [11] -0.057

GORASP2 isoform 3 (UniProt Q9H8Y8)
inactive: bafetinib 0.094 | [1] 0.018 | nilotinib -0.15 | [2] -0.161 | dasatinib -0.204 | [3] 0.07 | [4] 0.006 | [5] -0.116 | tipifarnib -0.053 | mubritinib -0.002 | [6] -0.078 | [7] 0.061 | [8] -0.085 | [9] -0.129 | entinostat 0.037 | vorinostat 0.032 | citarinostat -0.027 | silmitasertib 0.085 | [10] -0.004 | [11] 0.027

GPHN isoform 2 (UniProt Q9NQX3)
inactive: bafetinib -0.03 | [1] -0.034 | nilotinib 0.018 | [2] 0 | dasatinib 0.028 | [3] -0.004 | [4] 0.017 | [5] 0.007 | tipifarnib 0.01 | mubritinib 0.038 | [6] -0.02 | [7] 0.006 | [8] 0.043 | [9] 0.004 | entinostat -0.033 | vorinostat -0.025 | citarinostat -0.049 | silmitasertib 0.028 | [10] -0.025 | [11] 0.06

GMFG (UniProt O60234)
inactive: bafetinib 0.016 | [1] 0.052 | nilotinib 0.036 | [2] -0.052 | dasatinib -0.074 | [3] -0.013 | [4] -0.015 | [5] -0.058 | tipifarnib -0.041 | mubritinib 0.057 | [6] -0.019 | [7] -0.088 | [8] -0.085 | [9] -0.024 | entinostat 0.008 | vorinostat -0.062 | citarinostat 0.012 | silmitasertib 0.016 | [10] -0.074 | [11] -0.054

GNAS (UniProt Q5JWF2)
inactive: bafetinib 0.129 | [1] -0.001 | nilotinib 0.103 | [2] -0.02 | dasatinib 0.064 | [3] 0.005 | [4] 0.029 | [5] 0.031 | tipifarnib 0.005 | mubritinib -0.035 | [6] -0.133 | [7] -0.009 | [8] 0.002 | [9] -0.004 | entinostat -0.058 | vorinostat -0.022 | citarinostat -0.043 | silmitasertib -0.018 | [10] -0.007 | [11] -0.045

GNB1L (UniProt Q9BYB4)
inactive: bafetinib -0.03 | [1] -0.006 | nilotinib -0.019 | [2] -0.004 | dasatinib 0.026 | [3] -0.023 | [4] 0.048 | [5] 0.035 | tipifarnib -0.018 | mubritinib 0.037 | [6] -0.013 | [7] -0.022 | [8] -0.026 | [9] 0.043 | entinostat -0.008 | vorinostat -0.017 | citarinostat -0.014 | silmitasertib -0.005 | [10] 0.002 | [11] 0.01
